These are yes or no findings as the source states them, for the method shown. Some entries that bind do so weakly or less than the wild type. For some of these results: Where a sequence is shown, tags or fusion partners need not be part of it.
Columns and labels:
[1] = target: N-terminally HA-tagged TM4SF20 expressed on Ba/F3 cells (TM4SF20_Ba/F3) (human) (UniProt Q53R12); assay: flow cytometry screening of hybridoma supernatants on TM4SF20_Ba/F3 against parental Ba/F3 cells
[2] = target: human TM4SF20 (Transmembrane 4 L6 family member 20), endogenous (human) (UniProt Q53R12); assay: flow cytometry, purified antibody at 10 µg/mL on A549 cells
[3] = target: T1, N-terminally HA-tagged chimeric TM4SF20 version 1 expressed on CHO DG44 cells (chimeric TM4SF20 ver.1_CHO) (human TM4SF20 with the first loop (amino acids 36-44) substituted by that of mouse TM4SF20) (UniProt Q53R12); assay: flow cytometry, hybridoma culture supernatant on chimeric TM4SF20 ver.1_CHO cells
T1 sequence: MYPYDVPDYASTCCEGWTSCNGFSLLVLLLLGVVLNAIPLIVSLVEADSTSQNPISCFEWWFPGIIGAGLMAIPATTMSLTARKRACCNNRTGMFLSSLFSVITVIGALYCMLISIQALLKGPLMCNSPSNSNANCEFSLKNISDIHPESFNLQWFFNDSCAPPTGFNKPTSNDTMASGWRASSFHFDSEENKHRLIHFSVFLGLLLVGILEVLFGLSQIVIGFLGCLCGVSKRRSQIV

Protein sequences, listed by entry. Tags and fused reporters are not part of them. Lines headed by an entry give the natural chain unless they say otherwise; changes in a name come on top.
UniProt Q53R12: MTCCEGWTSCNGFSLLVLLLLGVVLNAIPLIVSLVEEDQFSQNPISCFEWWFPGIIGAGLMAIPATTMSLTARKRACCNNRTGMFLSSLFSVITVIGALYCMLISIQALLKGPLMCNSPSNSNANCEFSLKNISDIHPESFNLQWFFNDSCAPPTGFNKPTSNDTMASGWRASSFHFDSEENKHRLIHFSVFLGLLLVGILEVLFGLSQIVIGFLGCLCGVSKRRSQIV

[4] = target: C-terminally HA-tagged TM4SF20 expressed on CHO DG44 cells (TM4SF20_CHO) (human) (UniProt Q53R12); assay: flow cytometry, hybridoma culture supernatant at 10 µg/mL on TM4SF20_CHO cells

Measured: binding

B1: anti-TM4SF20 antibody B8 (antibody, mouse IgG2b, V domains shown)
VH: RVQLKESGPDLVQPSQTLSLTCTVSGFSLTNYGVHWIRQPPGKGLEWVGTVGWDDKKYYNSVLKSRLSINRDTSKNQVFLKLSSLQTEDTAMYYCTPYYDGSPYVMDYWGQGTSVTVSS
VL: DIVMSQSPSSLAVSAGEKVTMTCKSSQSLFDSGTRKNYLAWYQQKPGQSPKLLIYWASTRESGVPDRFTGSGSGTDFTLTISSVQAEDLAVYYCKQSYYLLTFGAGTKLELK
binds: all assays above

B2: anti-TM4SF20 antibody B15 (antibody, mouse IgG2a, V domains shown)
VH: RVQLKESGPDLVQPSQTLSLTCTVSGFSLTNYGVHWIRQPPGKGLEWVGTVGWDDKKYYNSVLKSRLSINRDTSKNQVFLKLSSLQTEDTAMYYCTPYYDGSPYVMDYWGQGTSVTVSS
VL: DIVMSQSPSSLAVSAGEKVTMTCKSSQSLFDSGTRKNYLAWYQQKPGQSPKLLIYWASTRESGVPDRFTGSGSGTDFTLTISSVQAEDLAVYYCKQSYYLLTFGAGTKLELK
binds: all assays above

B3: anti-TM4SF20 antibody C7 (antibody, mouse IgG1, V domains shown)
VH: QVQLKESGPDLVQPSQTLSLTCTVSGFSLSSYGVHWVRQPPGKGLEWVGTMGWDDKKYYNSALNSRLSLSRDTSKNQVFLKLSSLQTEDTAMYYCTRDYYSDGSFAYWGQGTLVTVSA
VL: DVLMTQTPLSLPVSLGDQASISCKSSQSIVHSDGNTYLQWYLQKPGQSPKLLIYKVSNRFSGVPDRFSGSGSGTDFTLKISRVEAEDLGIYYCFQGSHVPPTFGTGTKLEIK
binds: all assays above

B4: anti-TM4SF20 antibody C9 (antibody, mouse IgG1, V domains shown)
VH: QVQLKESGPDLVQPSQTLSLTCTVSGFSLSSYGVHWVRQPPGKGLEWVGTMGWDDKKYYNSALNSRLSLSRDTSKNQVFLKLSSLQTEDTAMYYCTRDYYSDGSFAYWGQGTLVTVSA
VL: DVLMTQTPLSLPVSLGDQASISCKSSQSIVHSDGNTYLQWYLQKPGQSPKLLIYKVSNRFSGVPDRFSGSGSGTDFTLKISRVEAEDLGIYYCFQGSHVPPTFGTGTKLEIK
binds: all assays above
